Results published in paper PMC9686786.
No constants are given. Whether binding was seen depends on the method and setting. Binding seen in cells or lysates may run through a third protein. Some entries that bind do so weakly or less than the wild type.

Protein sequences, listed by entry. Tags and fused reporters are not part of them.
UniProt O46414: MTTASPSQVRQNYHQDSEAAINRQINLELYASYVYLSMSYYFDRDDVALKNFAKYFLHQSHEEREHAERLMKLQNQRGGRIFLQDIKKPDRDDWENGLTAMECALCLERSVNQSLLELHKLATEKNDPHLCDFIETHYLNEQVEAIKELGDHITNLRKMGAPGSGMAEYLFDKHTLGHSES

Target: T1, heme oxygenase-1 (HMOX1) (bovine (endogenous in MAC-T)) (UniProt Q5E9F2)
T1 sequence: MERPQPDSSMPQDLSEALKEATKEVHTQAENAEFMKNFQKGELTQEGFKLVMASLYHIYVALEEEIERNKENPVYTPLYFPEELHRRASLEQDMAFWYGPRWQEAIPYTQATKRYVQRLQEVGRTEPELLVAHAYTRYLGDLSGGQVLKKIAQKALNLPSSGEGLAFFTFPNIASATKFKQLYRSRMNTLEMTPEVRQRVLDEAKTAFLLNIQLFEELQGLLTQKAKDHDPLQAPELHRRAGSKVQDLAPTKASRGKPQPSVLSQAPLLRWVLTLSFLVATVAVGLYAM
Experiment: co-IP; endogenous proteins from MAC-T cells treated with or without LPS (100 ug/mL, 24 h); Pierce Co-IP kit, Protein A/G agarose beads with anti-HMOX1, anti-FTH1 or control IgG; detected by Western blot

binding: binds
Substance: ferritin heavy chain 1 (FTH1) (from UniProt O46414 1-181)
